Values joined by “and” are separate entries in the source; they are usually repeats but may differ in a detail not shown here. Equal values may be shown once. Most of the hits are listed elsewhere, so they are rarer here than in the full data. Results filed as inconclusive are left out. Active and inactive are the calls of the source. Unless noted, the call rests on the fitted dose curve.
What was measured:
[1] = target: Gonadotropin-releasing hormone receptor (Homo sapiens) (UniProt P30968); assay: Human gonadotropin-releasing hormone receptor (GnRHR) small molecule agonists, calcium flux assay in GnRHR-HEK293 cells (AID 1920063); conditions: calcium flux fluorescence, agonist mode, stronger effect = higher value; at 57.6 µM (top of the series); further: nearly all actives have a fitted effect of over 35% in size
Source text: National Center for Advancing Translational Sciences [NCATS]
Division of Preclinical Innovation [DPI]
U.S. Environmental Protection Agency [EPA]
National Institutes of Environmental Health Sciences [NIEHS]
National Toxicology Program [NTP]
U.S. Food and Drug Administration [FDA]
Gonadotropin-releasing hormone receptor (GnRHR) is a G-protein-coupled receptor (GPCR) and acts (through phospholipase C) to increase intracellular inositol trisphosphate and then release intracellular calcium stores. Cell-based GnRHR-Hek293 calcium influx assay is using HEK293 cells that have been genetically engineered to express the human GnRHR, which activity can be measured by calcium signaling. A compound/drug can activate (agonist) GnRHR that can be monitored by levels of intracellular calcium.
GnRHR-HEK293 cells developed by Codex Corp contain human GnRHR reporter gene, which was stably integrated into HEK 293 cells. The compound activation can be detected by fluorescence intensity via calcium flux assay. This cell line has been used to screen the Tox21 10K compound library to identify GnRHR agonists.
GnRHR-Hek293 cells were dispensed at 1500cells/4uL/well in 1536-well black wall/clear bottom plates using a multidrop dispenser. After the assay plates were incubated at a 37 C/5% CO2 incubator for 18 hours, 4 uL of Calcium Dye Solution was added to each well. The plates were incubated at 37 C for 1 hour. For agonist mode, 23 nL of compounds dissolved in DMSO, positive controls or DMSO only was transferred to the assay plate by a pin tool station. The fluorescence intensity in the plates was measured using FDSS 7000EX kinetic plate reader with a filter set of Ex/Em=480/540 for 3 min at 1 sec intervals. Each test compound was measured at 15 concentrations and in triplicates.

Chains of the proteins cited; added tags and fusions are not shown. Lines headed by an entry give the natural chain unless they say otherwise; changes in a name come on top.
UniProt P30968: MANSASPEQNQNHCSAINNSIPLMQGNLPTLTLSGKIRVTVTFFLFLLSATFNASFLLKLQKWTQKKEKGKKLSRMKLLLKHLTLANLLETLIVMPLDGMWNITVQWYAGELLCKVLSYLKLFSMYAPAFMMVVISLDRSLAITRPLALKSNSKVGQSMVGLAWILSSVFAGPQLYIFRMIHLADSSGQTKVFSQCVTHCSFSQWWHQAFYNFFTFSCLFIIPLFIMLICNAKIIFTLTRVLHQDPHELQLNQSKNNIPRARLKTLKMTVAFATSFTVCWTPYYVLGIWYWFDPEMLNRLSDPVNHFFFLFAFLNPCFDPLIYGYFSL
UniProt Q969F8, whole entry, looked up: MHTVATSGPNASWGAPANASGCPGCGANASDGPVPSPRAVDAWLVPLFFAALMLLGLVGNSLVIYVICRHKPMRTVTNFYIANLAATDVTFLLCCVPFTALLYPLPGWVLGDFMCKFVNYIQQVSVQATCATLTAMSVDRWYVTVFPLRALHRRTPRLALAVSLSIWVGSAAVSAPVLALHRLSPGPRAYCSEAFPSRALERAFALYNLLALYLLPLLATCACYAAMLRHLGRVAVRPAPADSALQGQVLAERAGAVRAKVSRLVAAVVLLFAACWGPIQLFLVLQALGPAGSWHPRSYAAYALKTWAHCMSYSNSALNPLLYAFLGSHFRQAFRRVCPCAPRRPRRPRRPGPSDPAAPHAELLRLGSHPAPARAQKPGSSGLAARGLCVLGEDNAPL

[2] = target: KiSS-1 receptor (Homo sapiens) (UniProt Q969F8); assay: Human kisspeptin (KISS1R) small molecule agonists, calcium flux assay in KISS1R-HEK293 cells (AID 1920064; active means well fitted activation curve with a large enough effect in the repeat runs); conditions: KISS1R-HEK293, calcium flux fluorescence, agonist; at 76.8 µM (top of the series)
In short: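 Cell line: HEK293, stable human KISS1R. Dye loading 1 h at 37 C after 18 h culture. Read: kinetic fluorescence, 480/540 nm, 3 min at 1 s intervals.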

[3] = G protein-coupled receptor (GPCR) small molecule agonists, calcium flux assay: HEK293 wild type cell line counter screen (AID 1920065); conditions: HEK293 WT calcium flux, fluorescence, agonist mode; at 57.6 µM (top of the series)
In short: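 Tox21 10K compounds, 15 concentrations each in triplicate, pin-transferred in DMSO onto dye-loaded cells; kinetic read at 480/540 nm for 3 min, 1 s intervals.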

[4] = cAMP Responsive Elements (CRE) small molecule agonists, cell-based qHTS assay (AID 1963590); conditions: CRE-bla HEK293T, beta-lactamase FRET ratio, 3 h; at 92.4 µM (top of the series)
Source text: U.S. Tox21 Program National Center for Advancing Translational Sciences [NCATS] Division of Preclinical Innovation [DPI] U.S. Environmental Protection Agency [EPA] National Institutes of Environmental Health Sciences [NIEHS] National Toxicology Program [NTP] U.S. Food and Drug Administration [FDA] Tox21 Assay Overview: CREB (cyclic-AMP Responsive Element Binding Protein) is a cellular transcription factor. It binds to certain DNA sequences called cAMP Responsive Elements (CRE) and regulates the transcription of the genes. […] This cell line can be used to find agonists/antagonists of the cyclic AMP signaling pathway. The activation of the report gene under culture conditions can be detected by fluorescence intensity. This cell line has been used to screen the Tox21 10K compound library to identify agonists that induce oxidative stress.
Tox21 Assay Protocol Summary: CRE-bla Hek 293T cells were suspended in assay medium (DMEM containing 10% dialyzed FBS, 0.1 mM NEAA, 1 mM sodium pyruvate and 25 mM HEPES) and dispensed at 2,000 cells/5 uL /well into 1536-well black wall/clear bottom plates using a Multidrop Combi (ThermoFisher Scientific, Waltham, MA) dispenser. After the assay plates were incubated at 37 C/5% CO2 for 18 hrs, 23 nL of compounds dissolved in DMSO, positive controls or DMSO only was transferred to the assay plate by a pintool workstation (Kalypsys, San Diego, CA). After the plates were incubated at 37 C/5% CO2 for 3 hrs, 1 uL of LiveBLAzer B/G FRET substrate (Invitrogen, Carlsbad, CA) was added to each well using Bioraptr Flying Reagent Dispenser (FRD, Aurora Discovery, San Diego, CA). The plates were incubated at room temperature for 2 h.

[5] = cAMP Responsive Elements (CRE) small molecule antagonists, cell-based qHTS assay (AID 1963591; active means well fitted inhibition curve with a large enough effect in the signal ratio in the repeat runs, not every such curve was filed as active; the % refers to the signal ratio); conditions: CRE-bla HEK293T, beta-lactamase FRET ratio; at 92.4 µM (top of the series)
In short: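 First, CRE-bla HEK293T cells settled 18 h at 37 C. Next, compound and 0.25 uM final NKH477 were applied for 3 h. Last, LiveBLAzer B/G substrate was loaded for 2 h at room temperature.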
On the % scale 0 is the no-effect control and ±100 the full control effect.

Nc1ccc(N)c([N+](=O)[O-])c1
inactive: activity change [1] 2.87% | activation [2] -6.55% | activation [3] 3.01%

O=C1Cc2ccccc2C1
inactive: activity change [1] -0.578% | activation [2] 2.04% | activation [3] 0.983% | activation [4] -0.0832% | activity change, negative = inhibition [5] 4.95%

CC(=O)N(C)C
inactive: activity change [1] 1.14% and 2.32% | activation [2] -0.572% and 0.594% | activation [3] 0.0601% and 0.285% | activation [4] -2.01% and 0.18% | activity change, negative = inhibition [5] -6.43% and -4.81%

CS(=O)(=O)c1ccc([C@@H](CC2CCCC2)C(=O)Nc2cnccn2)cc1Cl
inactive: activity change [1] 2.22% | activation [2] 8.43% | activation [3] 3.1%

COc1ccc2ccccc2c1
inactive: activity change [1] -1.7% | activation [2] -9.7% | activation [3] -0.162% | activation [4] 0.623% | activity change, negative = inhibition [5] -11.3%

CCCCCCCC1CCC(=O)O1 (stereo not given)
inactive: activity change [1] -0.104% | activation [2] -2.65% | activation [3] -1.87% | activity change, negative = inhibition [5] 10.5%
